Data as given in the supplement of paper PMC10849652.
The list shows a part of the results.

The chains behind the UniProt entries cited, without tags or fusion partners. Where a name states a change or a piece, a line headed by the entry shows the natural chain unless it says otherwise.
UniProt Q9Y295: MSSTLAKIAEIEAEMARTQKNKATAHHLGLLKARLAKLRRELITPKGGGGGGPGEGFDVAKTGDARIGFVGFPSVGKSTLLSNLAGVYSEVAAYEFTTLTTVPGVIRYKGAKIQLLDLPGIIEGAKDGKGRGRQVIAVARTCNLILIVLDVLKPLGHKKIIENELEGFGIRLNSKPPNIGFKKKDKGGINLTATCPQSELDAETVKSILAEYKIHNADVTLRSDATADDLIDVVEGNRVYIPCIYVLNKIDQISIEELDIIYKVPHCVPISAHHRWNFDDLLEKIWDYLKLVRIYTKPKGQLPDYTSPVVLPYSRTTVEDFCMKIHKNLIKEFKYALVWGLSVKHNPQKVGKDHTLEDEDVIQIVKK
UniProt Q13217: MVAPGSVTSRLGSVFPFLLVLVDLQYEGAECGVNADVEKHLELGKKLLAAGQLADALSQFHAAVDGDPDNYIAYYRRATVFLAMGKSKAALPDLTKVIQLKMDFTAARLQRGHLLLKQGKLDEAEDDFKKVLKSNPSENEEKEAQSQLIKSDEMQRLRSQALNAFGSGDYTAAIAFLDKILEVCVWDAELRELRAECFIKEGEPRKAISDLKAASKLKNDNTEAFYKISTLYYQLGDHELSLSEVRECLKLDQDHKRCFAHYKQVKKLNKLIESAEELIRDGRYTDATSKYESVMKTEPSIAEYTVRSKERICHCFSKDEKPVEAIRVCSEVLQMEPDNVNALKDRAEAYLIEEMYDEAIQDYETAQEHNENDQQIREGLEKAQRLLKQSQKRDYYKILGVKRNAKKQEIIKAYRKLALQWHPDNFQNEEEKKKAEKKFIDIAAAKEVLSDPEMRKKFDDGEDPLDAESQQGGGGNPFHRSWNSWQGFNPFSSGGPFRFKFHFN
UniProt Q9UBS4: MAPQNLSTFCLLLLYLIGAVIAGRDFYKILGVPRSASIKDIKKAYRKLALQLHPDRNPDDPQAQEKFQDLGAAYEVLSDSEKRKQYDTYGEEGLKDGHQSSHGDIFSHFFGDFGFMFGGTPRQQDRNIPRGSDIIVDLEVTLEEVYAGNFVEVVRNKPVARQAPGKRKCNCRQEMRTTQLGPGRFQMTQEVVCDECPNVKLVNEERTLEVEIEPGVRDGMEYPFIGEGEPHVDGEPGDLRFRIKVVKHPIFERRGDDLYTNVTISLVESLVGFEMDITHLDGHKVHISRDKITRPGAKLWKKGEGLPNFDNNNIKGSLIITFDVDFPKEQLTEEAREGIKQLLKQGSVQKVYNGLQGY
UniProt Q9BQ95: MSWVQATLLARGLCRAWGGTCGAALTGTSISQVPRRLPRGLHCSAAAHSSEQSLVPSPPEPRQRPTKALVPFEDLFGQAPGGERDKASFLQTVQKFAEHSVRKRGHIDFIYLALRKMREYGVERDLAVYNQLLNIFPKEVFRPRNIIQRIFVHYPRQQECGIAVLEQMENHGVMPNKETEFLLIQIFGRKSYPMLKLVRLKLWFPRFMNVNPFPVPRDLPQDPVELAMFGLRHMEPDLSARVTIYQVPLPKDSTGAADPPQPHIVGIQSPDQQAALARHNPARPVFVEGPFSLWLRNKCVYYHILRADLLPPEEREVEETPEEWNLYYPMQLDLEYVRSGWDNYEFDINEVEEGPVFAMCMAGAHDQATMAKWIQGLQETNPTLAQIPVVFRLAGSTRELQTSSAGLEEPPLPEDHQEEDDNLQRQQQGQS
UniProt Q7L8W6: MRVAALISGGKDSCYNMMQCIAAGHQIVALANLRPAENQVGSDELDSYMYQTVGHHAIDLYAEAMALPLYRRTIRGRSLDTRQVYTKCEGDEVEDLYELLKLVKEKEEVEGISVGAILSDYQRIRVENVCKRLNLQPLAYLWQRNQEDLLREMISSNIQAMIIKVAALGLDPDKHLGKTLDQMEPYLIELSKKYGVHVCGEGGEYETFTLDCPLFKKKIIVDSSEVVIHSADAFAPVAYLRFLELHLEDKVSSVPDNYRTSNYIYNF
UniProt Q96EY1: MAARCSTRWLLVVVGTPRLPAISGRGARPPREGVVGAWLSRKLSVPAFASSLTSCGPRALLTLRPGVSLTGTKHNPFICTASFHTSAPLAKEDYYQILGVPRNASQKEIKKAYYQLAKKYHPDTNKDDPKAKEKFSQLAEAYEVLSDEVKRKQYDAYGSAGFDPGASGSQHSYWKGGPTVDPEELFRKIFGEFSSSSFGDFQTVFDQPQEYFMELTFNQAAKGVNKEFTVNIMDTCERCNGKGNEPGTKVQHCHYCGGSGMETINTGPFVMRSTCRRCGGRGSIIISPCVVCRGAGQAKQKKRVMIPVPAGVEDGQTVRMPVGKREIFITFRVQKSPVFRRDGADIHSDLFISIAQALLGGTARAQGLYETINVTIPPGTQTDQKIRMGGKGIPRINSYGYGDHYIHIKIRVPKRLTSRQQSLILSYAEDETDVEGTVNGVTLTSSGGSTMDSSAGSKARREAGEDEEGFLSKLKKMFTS
UniProt P30084: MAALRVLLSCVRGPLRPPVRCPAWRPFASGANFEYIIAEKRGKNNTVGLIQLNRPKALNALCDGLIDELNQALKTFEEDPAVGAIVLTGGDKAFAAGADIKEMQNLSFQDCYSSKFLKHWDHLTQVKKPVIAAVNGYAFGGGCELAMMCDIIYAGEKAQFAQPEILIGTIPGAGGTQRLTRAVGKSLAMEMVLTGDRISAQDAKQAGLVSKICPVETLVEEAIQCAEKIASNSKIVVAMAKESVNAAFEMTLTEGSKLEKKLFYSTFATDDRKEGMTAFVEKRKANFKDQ
UniProt Q92785, whole entry, looked up: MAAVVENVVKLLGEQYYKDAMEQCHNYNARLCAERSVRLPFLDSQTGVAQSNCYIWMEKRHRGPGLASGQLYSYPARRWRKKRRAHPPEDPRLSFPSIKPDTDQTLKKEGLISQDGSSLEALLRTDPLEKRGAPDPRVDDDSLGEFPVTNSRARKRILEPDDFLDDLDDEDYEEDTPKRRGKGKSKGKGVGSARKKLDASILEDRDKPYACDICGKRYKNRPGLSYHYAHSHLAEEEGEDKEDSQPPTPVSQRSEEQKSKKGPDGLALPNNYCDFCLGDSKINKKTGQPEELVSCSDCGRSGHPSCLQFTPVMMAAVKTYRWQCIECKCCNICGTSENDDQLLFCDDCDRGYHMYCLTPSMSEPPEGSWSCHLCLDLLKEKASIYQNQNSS
UniProt P23919: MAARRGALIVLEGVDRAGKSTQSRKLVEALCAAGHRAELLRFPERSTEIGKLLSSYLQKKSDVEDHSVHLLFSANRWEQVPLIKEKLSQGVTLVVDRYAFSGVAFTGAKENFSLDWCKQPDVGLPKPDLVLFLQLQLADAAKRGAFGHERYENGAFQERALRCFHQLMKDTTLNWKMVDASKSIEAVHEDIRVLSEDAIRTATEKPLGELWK
UniProt Q96KC8: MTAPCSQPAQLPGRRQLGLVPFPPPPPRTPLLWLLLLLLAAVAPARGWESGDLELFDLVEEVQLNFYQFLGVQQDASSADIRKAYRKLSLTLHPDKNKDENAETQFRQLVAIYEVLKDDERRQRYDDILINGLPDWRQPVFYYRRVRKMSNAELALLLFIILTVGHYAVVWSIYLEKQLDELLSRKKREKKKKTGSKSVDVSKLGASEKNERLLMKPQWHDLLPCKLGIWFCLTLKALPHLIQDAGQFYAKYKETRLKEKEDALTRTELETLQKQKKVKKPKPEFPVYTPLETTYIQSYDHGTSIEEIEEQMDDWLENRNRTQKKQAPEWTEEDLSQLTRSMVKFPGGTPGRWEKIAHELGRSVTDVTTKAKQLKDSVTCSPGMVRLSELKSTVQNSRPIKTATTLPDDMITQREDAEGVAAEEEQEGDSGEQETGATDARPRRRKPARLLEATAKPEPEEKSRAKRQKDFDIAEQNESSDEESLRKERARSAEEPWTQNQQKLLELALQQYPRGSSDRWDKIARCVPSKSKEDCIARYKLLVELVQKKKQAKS
UniProt Q96FJ2, whole entry, looked up: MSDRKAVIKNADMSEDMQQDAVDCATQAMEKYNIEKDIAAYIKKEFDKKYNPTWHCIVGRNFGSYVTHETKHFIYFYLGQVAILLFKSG
UniProt Q9NX74: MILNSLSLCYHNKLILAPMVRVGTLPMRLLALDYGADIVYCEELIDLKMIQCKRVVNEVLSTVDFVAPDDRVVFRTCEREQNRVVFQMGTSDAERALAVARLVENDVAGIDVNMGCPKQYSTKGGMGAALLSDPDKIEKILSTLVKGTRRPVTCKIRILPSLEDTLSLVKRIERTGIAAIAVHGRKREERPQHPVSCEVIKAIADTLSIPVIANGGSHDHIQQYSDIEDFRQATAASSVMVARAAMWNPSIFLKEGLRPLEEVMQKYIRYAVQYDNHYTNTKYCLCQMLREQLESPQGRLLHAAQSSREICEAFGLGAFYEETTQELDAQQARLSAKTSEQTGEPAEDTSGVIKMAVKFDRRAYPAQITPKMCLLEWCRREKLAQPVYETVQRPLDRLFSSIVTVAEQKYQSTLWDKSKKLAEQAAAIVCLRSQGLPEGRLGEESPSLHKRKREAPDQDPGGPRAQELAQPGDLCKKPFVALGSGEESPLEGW
UniProt Q9C005, whole entry, looked up: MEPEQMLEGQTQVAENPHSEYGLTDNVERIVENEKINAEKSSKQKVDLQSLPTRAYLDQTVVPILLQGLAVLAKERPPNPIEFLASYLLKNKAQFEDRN
UniProt Q96G46: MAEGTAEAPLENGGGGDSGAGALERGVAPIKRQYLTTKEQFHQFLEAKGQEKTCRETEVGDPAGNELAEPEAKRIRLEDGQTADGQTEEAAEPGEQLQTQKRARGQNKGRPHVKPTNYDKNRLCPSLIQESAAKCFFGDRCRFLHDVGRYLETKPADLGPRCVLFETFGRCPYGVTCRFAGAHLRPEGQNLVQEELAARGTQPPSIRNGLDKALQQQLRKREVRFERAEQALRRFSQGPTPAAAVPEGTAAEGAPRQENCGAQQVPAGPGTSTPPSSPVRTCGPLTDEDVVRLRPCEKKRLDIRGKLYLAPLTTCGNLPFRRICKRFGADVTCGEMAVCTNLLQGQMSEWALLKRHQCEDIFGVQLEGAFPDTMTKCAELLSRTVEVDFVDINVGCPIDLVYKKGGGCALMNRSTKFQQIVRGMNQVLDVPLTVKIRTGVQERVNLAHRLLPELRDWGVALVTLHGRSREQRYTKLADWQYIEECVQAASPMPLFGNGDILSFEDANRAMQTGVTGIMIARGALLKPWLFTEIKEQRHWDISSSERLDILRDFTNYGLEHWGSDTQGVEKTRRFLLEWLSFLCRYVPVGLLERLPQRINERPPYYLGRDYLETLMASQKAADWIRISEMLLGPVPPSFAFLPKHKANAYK
UniProt Q15075: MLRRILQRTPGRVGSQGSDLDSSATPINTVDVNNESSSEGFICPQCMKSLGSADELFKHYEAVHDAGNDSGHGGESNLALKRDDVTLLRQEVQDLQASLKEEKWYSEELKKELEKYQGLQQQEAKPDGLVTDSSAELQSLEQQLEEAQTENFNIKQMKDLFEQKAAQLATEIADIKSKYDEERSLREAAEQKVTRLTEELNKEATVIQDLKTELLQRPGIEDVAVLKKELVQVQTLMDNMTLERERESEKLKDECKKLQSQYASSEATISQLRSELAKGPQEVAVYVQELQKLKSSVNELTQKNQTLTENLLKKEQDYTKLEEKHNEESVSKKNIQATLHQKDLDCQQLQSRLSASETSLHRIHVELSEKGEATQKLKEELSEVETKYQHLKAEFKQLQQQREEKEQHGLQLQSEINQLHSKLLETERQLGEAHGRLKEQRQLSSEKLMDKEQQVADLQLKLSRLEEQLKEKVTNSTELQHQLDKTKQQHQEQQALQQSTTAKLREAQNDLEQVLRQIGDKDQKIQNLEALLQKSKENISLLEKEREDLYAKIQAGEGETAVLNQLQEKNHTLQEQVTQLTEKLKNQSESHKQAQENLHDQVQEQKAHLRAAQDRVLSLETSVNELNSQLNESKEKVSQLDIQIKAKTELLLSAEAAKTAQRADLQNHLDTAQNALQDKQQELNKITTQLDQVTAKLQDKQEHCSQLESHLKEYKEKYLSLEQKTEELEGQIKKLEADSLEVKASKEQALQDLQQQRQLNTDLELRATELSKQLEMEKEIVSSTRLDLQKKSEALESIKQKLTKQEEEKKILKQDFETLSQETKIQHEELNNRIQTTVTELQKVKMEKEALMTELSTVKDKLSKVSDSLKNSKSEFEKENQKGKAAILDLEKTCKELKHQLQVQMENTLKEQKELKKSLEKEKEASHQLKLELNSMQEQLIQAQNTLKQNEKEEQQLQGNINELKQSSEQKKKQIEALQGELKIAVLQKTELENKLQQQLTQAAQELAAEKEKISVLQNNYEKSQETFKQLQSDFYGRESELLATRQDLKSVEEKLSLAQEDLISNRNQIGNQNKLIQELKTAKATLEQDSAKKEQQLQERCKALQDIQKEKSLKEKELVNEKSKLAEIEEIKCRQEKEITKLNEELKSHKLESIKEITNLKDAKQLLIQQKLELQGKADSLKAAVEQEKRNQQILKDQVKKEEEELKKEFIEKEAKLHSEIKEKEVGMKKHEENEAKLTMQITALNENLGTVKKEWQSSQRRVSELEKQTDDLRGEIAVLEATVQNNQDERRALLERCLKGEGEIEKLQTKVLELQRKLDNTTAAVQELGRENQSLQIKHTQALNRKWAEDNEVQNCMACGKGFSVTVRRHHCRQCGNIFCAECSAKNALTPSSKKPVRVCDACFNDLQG

Experiments:
Assay in all cases: log2 fold change, soluble protein after heating vs DMSO (PISA); higher = thermal stabilisation; K562 cells, 10 uM, 30 min; active = over 0.2 and 3.5 SD of the protein, either way, in both replicates (recomputed)
erlotinib = compound: C#Cc1cccc(Nc2ncnc3cc(OCCOC)c(OCCOC)cc23)c1 [erlotinib]
Procedure, shortened: (§1)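 K562 cells at 2×10^6 cells/mL were exposed to 10 μM compound for 30 min, then aliquots were heated for 3 min across 48°C-58°C, pooled, and extracted in PBS containing 0.5% NP-40 at 4°C. The supernatant after 21,000xg for 90 min was taken as soluble protein and measured by TMTpro 16plex LC-MS/MS with channel sums equalised. Thermal stability is reported relative to control samples, with values from duplicates. Fold changes are given on a log2 scale.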

[1] = compound: C/C(=N\NC(=O)C1=CC(=CC=C1)S(=O)(=O)N2CCOCC2)/C3=C(C=CC(=C3)Cl)O
Procedure, shortened: as §1

[2] = compound: C1=CC(=C(C=C1Cl)C2=NC3=NC=CN=C3C(=N2)NC4=CC=NC=C4)F
Procedure, shortened: as §1

[3] = compound: C1=CC(=CC=C1C2=NC3=C(N2)C=C(C=C3)C(=O)N)OC4=CC=C(C=C4)Cl
Procedure, shortened: as §1

[4] = compound: C1=CC2=C(C=CC(=C2)/C=C\3/C(=O)NC(=NCC4=CC=CS4)S3)N=C1
Procedure, shortened: as §1

[5] = compound: C1=CC2=NC=CN=C2C=C1/C=C/3\C(=O)NC(=O)S3
Procedure, shortened: as §1

[6] = compound: C1=CC=C(C=C1)C2=NC(=C(N2)C3=CC=NC=C3)C4=CC(=C(C=C4)Cl)O
Procedure, shortened: as §1

[7] = compound: C1=CC=C2C(=C1)C3=NNC4=CC=CC(=C43)C2=O
Procedure, shortened: as §1

[8] = compound: C1CCN(C1)C(=O)NC2=CC=CC(=C2)NC3=NC=C(C(=N3)NCCC4=CN=CN4)Br
Procedure, shortened: as §1

[9] = compound: C1CN(CCC1(CC2=CC=C(C=C2)Cl)N)C3=NC=NC4=C3C=CN4
Procedure, shortened: as §1

Measured: log2 fold change

DRG1 (UniProt Q9Y295)
inactive: erlotinib -0.02 | [1] -0.03 | [2] -0.054 | [3] 0.01 | [4] 0.01 | [5] 0 | [6] -0.067 | [7] -0.02 | [8] -0.015 | [9] -0.07

EBP (UniProt Q15125)
inactive: erlotinib 0.006 | [1] -0.049 | [2] -0.057 | [3] 0.026 | [4] 0.022 | [5] 0.016 | [6] 0.057 | [7] -0.195 | [8] 0.041 | [9] 0.019

DNAJC3 (UniProt Q13217)
inactive: erlotinib -0.016 | [1] -0.001 | [2] -0.012 | [3] 0.014 | [4] -0.085 | [5] 0.023 | [6] -0.008 | [7] 0.032 | [8] 0.022 | [9] -0.039

DRG2 (UniProt P55039)
inactive: erlotinib -0.005 | [1] 0.041 | [2] -0.004 | [3] 0.011 | [4] 0.055 | [5] 0.035 | [6] 0.003 | [7] 0.001 | [8] -0.012 | [9] 0.008

DPH1 (UniProt Q9BZG8)
inactive: erlotinib -0.011 | [1] 0.081 | [2] 0.108 | [3] 0.023 | [4] -0.027 | [5] -0.011 | [6] -0.007 | [7] -0.003 | [8] -0.117 | [9] -0.02

DNAJB11 (UniProt Q9UBS4)
inactive: erlotinib 0 | [1] -0.052 | [2] 0.004 | [3] 0.023 | [4] -0.022 | [5] 0.023 | [6] -0.043 | [7] -0.06 | [8] 0.024 | [9] -0.004

DYNLL1 (UniProt P63167)
inactive: erlotinib -0.013 | [1] 0.043 | [2] 0.019 | [3] -0.01 | [4] 0.024 | [5] -0.049 | [6] 0.055 | [7] -0.066 | [8] -0.034 | [9] -0.039

ECSIT (UniProt Q9BQ95)
inactive: erlotinib 0.03 | [1] 0.04 | [2] -0.057 | [3] 0.016 | [4] 0.034 | [5] 0.021 | [6] 0.024 | [7] -0.036 | [8] -0.011 | [9] 0.026

DPH6 (UniProt Q7L8W6)
inactive: erlotinib -0.02 | [1] 0.131 | [2] 0.001 | [3] -0.004 | [4] 0.045 | [5] -0.006 | [6] 0.003 | [7] 0.004 | [8] 0.044 | [9] -0.01

DNAJA3 (UniProt Q96EY1)
inactive: erlotinib 0.07 | [1] -0.015 | [2] -0.073 | [3] 0.086 | [4] -0.016 | [5] 0.088 | [6] -0.019 | [7] 0.075 | [8] 0.01 | [9] -0.024

DTD1 (UniProt Q8TEA8)
inactive: erlotinib -0.015 | [1] -0.035 | [2] 0.014 | [3] 0.015 | [4] 0.029 | [5] 0.053 | [6] -0.039 | [7] -0.019 | [8] 0.01 | [9] 0.066

DNAJC8 (UniProt O75937)
inactive: erlotinib -0.08 | [1] 0.081 | [2] 0.046 | [3] 0.014 | [4] 0.019 | [5] 0.049 | [6] -0.026 | [7] 0.011 | [8] 0.011 | [9] -0.043

DYNC1H1 (UniProt Q14204)
inactive: erlotinib -0.022 | [1] 0.042 | [2] 0.017 | [3] 0.025 | [4] 0.017 | [5] 0.006 | [6] 0.032 | [7] 0.032 | [8] 0.007 | [9] -0.011

EBAG9 isoform 2 (UniProt O00559)
inactive: erlotinib 0.02 | [1] 0.079 | [2] 0.067 | [3] 0 | [4] -0.087 | [5] -0.022 | [6] 0.062 | [7] 0.046 | [8] 0.034 | [9] 0

ECHS1 (UniProt P30084)
inactive: erlotinib -0.048 | [1] 0.056 | [2] 0.037 | [3] 0.017 | [4] -0.043 | [5] 0.02 | [6] 0.056 | [7] 0.043 | [8] -0.011 | [9] 0.018

DOCK9 isoform 4 (UniProt Q9BZ29)
inactive: erlotinib -0.051 | [1] 0.049 | [2] -0.022 | [3] -0.012 | [4] -0.073 | [5] 0.026 | [6] 0.017 | [7] -0.069 | [8] -0.101 | [9] 0.13

DPF2 (UniProt Q92785)
inactive: erlotinib -0.007 | [1] -0.065 | [2] -0.135 | [3] 0.04 | [4] 0.044 | [5] 0.211 | [6] -0.01 | [7] -0.083 | [8] 0.09 | [9] 0.089

DNAJB4 (UniProt Q9UDY4)
inactive: erlotinib 0.009 | [1] 0.009 | [2] -0.044 | [3] 0.049 | [4] 0.004 | [5] 0.016 | [6] -0.049 | [7] -0.024 | [8] 0.018 | [9] 0.023

ECHDC1 (UniProt Q9NTX5)
inactive: erlotinib 0.022 | [1] 0.005 | [2] 0.022 | [3] -0.01 | [4] 0.009 | [5] 0.018 | [6] -0.03 | [7] -0.007 | [8] 0.021 | [9] 0.028

DPY19L4 (UniProt Q7Z388)
inactive: erlotinib 0.033 | [1] 0.153 | [2] -0.102 | [3] -0.064 | [4] -0.05 | [5] -0.001 | [6] 0.036 | [7] 0.296 | [8] -0.223 | [9] 0.116

DTYMK (UniProt P23919)
inactive: erlotinib -0.007 | [1] 0.025 | [2] 0.013 | [3] 0.04 | [4] -0.027 | [5] 0.044 | [6] -0.017 | [7] 0.095 | [8] 0.015 | [9] 0.016

DNAJC1 (UniProt Q96KC8)
inactive: erlotinib 0.001 | [1] 0.096 | [2] 0.059 | [3] 0.014 | [4] 0.082 | [5] 0.004 | [6] -0.021 | [7] -0.022 | [8] -0.001 | [9] 0.027

DNAJC10 (UniProt Q8IXB1)
inactive: erlotinib 0.004 | [1] -0.04 | [2] -0.147 | [3] 0.005 | [4] -0.115 | [5] -0.032 | [6] 0.061 | [7] 0.048 | [8] -0.04 | [9] -0.013

2 entries picked at random from the list so far, as already listed:
ECHDC1 (UniProt Q9NTX5)
inactive: erlotinib 0.022 | [1] 0.005 | [2] 0.022 | [3] -0.01 | [4] 0.009 | [5] 0.018 | [6] -0.03 | [7] -0.007 | [8] 0.021 | [9] 0.028

DNAJC1 (UniProt Q96KC8)
inactive: erlotinib 0.001 | [1] 0.096 | [2] 0.059 | [3] 0.014 | [4] 0.082 | [5] 0.004 | [6] -0.021 | [7] -0.022 | [8] -0.001 | [9] 0.027

Carrying on.

DYNLL2 (UniProt Q96FJ2)
inactive: erlotinib 0.019 | [1] 0.046 | [2] 0.05 | [3] -0.023 | [4] 0.029 | [5] -0.034 | [6] 0.031 | [7] -0.033 | [8] 0.01 | [9] -0.044

DUS2 (UniProt Q9NX74)
inactive: erlotinib -0.002 | [1] -0.022 | [2] 0.043 | [3] 0.088 | [4] 0.166 | [5] -0.011 | [6] -0.009 | [7] -0.123 | [8] -0.028 | [9] 0.021

DPY30 (UniProt Q9C005)
inactive: erlotinib -0.455 | [1] 0.136 | [2] 0.512 | [3] 0.37 | [4] -0.023 | [5] 0.043 | [6] 0.029 | [7] -0.012 | [8] 0 | [9] -0.1

DUS3L (UniProt Q96G46)
inactive: erlotinib -0.073 | [1] 0.025 | [2] 0.118 | [3] 0.059 | [4] 0.016 | [5] 0.037 | [6] 0.042 | [7] -0.001 | [8] -0.043 | [9] 0.078

EEA1 (UniProt Q15075)
inactive: erlotinib 0 | [1] -0.016 | [2] 0.046 | [3] 0.003 | [4] 0.01 | [5] 0.046 | [6] -0.046 | [7] -0.031 | [8] 0.009 | [9] 0.05
